# Results: patent publication US20260209319A1
# Sequences of proteins named here, by UniProt entry; tags and fusion partners are left off. A change or cut given only in a name is not applied to a line headed by its entry. A line that says so, or that is headed by a name, gives the form on record, which may keep a tag or linker.
# mesothelin (soluble, recombinant) (Q13421, form named): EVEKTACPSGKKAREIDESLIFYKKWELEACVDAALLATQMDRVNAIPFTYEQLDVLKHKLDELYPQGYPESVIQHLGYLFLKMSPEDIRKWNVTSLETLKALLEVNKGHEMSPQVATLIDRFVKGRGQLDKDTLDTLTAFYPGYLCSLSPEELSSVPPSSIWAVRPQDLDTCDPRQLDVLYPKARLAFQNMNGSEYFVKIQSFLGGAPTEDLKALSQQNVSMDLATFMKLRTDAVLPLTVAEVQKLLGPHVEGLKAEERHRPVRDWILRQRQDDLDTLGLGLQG
# Results are given in words; binding and its absence hold for the method and conditions named. Some entries that bind do so weakly or less than the wild type.
# Columns and labels:
# [1] = target: mesothelin (soluble, recombinant) (UniProt Q13421); assay: Octet, IgG captured on anti-human Fc (AHC) biosensor, 125 nM mesothelin, 5 min association, 5 min dissociation [panel MSLN-19]
# [2] = target: mesothelin (soluble, recombinant) (UniProt Q13421); assay: Octet, IgG captured on anti-human Fc (AHC) biosensor, 125 nM mesothelin, 5 min association, 5 min dissociation [panel MSLN-20]
# [3] = target: mesothelin (soluble, recombinant) (UniProt Q13421); assay: Octet, IgG captured on anti-human Fc (AHC) biosensor, 125 nM mesothelin, 5 min association, 5 min dissociation [panel MSLN-22]
# [4] = target: mesothelin (soluble, recombinant) (UniProt Q13421); assay: Octet, IgG captured on anti-human Fc (AHC) biosensor, 125 nM mesothelin, 5 min association, 5 min dissociation [panel MSLN-23]
# [5] = target: mesothelin (soluble, recombinant) (UniProt Q13421); assay: Octet, IgG captured on anti-human Fc (AHC) biosensor, 125 nM mesothelin, 5 min association, 5 min dissociation [con't), panel MSLN-25]
# [6] = target: mesothelin (soluble, recombinant) (UniProt Q13421); assay: Octet, IgG captured on anti-human Fc (AHC) biosensor, 125 nM mesothelin, 5 min association, 5 min dissociation [con't), panel MSLN-26]
# [7] = target: mesothelin (soluble, recombinant) (UniProt Q13421); assay: Octet, IgG captured on anti-human Fc (AHC) biosensor, 125 nM mesothelin, 5 min association, 5 min dissociation [con't), panel MSLN-27]
# [8] = target: mesothelin (soluble, recombinant) (UniProt Q13421); assay: Octet, IgG captured on anti-human Fc (AHC) biosensor, 125 nM mesothelin, 5 min association, 5 min dissociation [con't), panel MSLN-29]
# [9] = target: mesothelin (soluble, recombinant) (UniProt Q13421); assay: Octet, IgG captured on anti-human Fc (AHC) biosensor, 125 nM mesothelin, 5 min association, 5 min dissociation [con't), panel MSLN-30]
# [10] = target: mesothelin (soluble, recombinant) (UniProt Q13421); assay: Octet, IgG captured on anti-human Fc (AHC) biosensor, 125 nM mesothelin, 5 min association, 5 min dissociation [con't), panel MSLN-31]
# [11] = target: mesothelin (soluble, recombinant) (UniProt Q13421); assay: Octet, IgG captured on anti-human Fc (AHC) biosensor, 125 nM mesothelin, 5 min association, 5 min dissociation [con't), panel MSLN-32]
# [12] = target: mesothelin (soluble, recombinant) (UniProt Q13421); assay: Octet, IgG captured on anti-human Fc (AHC) biosensor, 125 nM mesothelin, 5 min association, 5 min dissociation [con't), panel MSLN-33]
# [13] = target: mesothelin (soluble, recombinant) (UniProt Q13421); assay: Octet, IgG captured on anti-human Fc (AHC) biosensor, 125 nM mesothelin, 5 min association, 5 min dissociation [con't), panel MSLN-34]
# [14] = target: mesothelin (soluble, recombinant) (UniProt Q13421); assay: Octet, IgG captured on anti-human Fc (AHC) biosensor, 125 nM mesothelin, 5 min association, 5 min dissociation [con't), panel MSLN-35]
# [15] = target: mesothelin (soluble, recombinant) (UniProt Q13421); assay: Octet, IgG captured on anti-human Fc (AHC) biosensor, 125 nM mesothelin, 5 min association, 5 min dissociation [con't), panel MSLN-37]
# [16] = target: mesothelin (soluble, recombinant) (UniProt Q13421); assay: Octet, IgG captured on anti-human Fc (AHC) biosensor, 125 nM mesothelin, 5 min association, 5 min dissociation [con't), panel MSLN-38]
binder,measurement,setting,value
"MSLN-19 (antibody, V domains shown) VH: QVQLQESGPGLVKPSETLSLTCTVSGGSVSSFTDTWSWIRQPPGKGLEWIGYIYYSGSTNYNPSLKSRVTISVDTSKNQFSLKLSSVTAADTAVYYCARDFVLSGFDIWGQGTMVTVSS VL: DIQMTQSPSSLSASVGDRVTITCRASQSSRYYVNWYQQKPGKAPKLLIYAASSLQSGVPSRFSGSGSGTDFTLTISSLQPEDFATYYCQQPYDASYTFGGGTKVEIK",binding,[1],binds
"MSLN-20 (antibody, V domains shown) VH: QVQLQESGPGLVKPSETLSLTCTVSGGSVSSYYSTWSWIRQPPGKGLEWIGYIYYSGSTNYNPSLKSRVTISVDTSKNQFSLKLSSVTAADTAVYYCARDFVLSGFDIWGQGTMVTVSS VL: DIQMTQSPSSLSASVGDRVTITCRASQSSRYYVNWYQQKPGKAPKLLIYAASSLQSGVPSRFSGSGSGTDFTLTISSLQPEDFATYYCQQPYDASYTFGGGTKVEIK",binding,[2],binds
"MSLN-22 (antibody, V domains shown) VH: QVQLQESGPGLVKPSETLSLTCTVSGGSVSSRDDLWSWIRQPPGKGLEWIGYIYYSGSTNYNPSLKSRVTISVDTSKNQFSLKLSSVTAADTAVYYCARDNVFTGFDIWGQGTMVTVSS VL: DIQMTQSPSSLSASVGDRVTITCRASQSSRYYVNWYQQKPGKAPKLLIYAASSLQSGVPSRFSGSGSGTDFTLTISSLQPEDFATYYCQQPYDASYTFGGGTKVEIK",binding,[3],binds
"MSLN-23 (antibody, V domains shown) VH: QVQLQESGPGLVKPSETLSLTCTVSGGSVSSFTDTWSWIRQPPGKGLEWIGYIYYSGSTNYNPSLKSRVTISVDTSKNQFSLKLSSVTAADTAVYYCARDNVFTGFDIWGQGTMVTVSS VL: DIQMTQSPSSLSASVGDRVTITCRASQSSRYYVNWYQQKPGKAPKLLIYAASSLQSGVPSRFSGSGSGTDFTLTISSLQPEDFATYYCQQPYDASYTFGGGTKVEIK",binding,[4],binds
"MSLN-25 (antibody, V domains shown) VH: QVQLQESGPGLVKPSETLSLTCTVSGGSVSSYHDLWSWIRQPPGKGLEWIGYIYYSGSTNYNPSLKSRVTISVDTSKNQFSLKLSSVTAADTAVYYCAREDALTGFDIWGQGTMVTVSS VL: DIQMTQSPSSLSASVGDRVTITCRASQSISSYLNWYQQKPGKAPKLLIYAASSLQSGVPSRFSGSGSGTDFTLTISSLQPEDFATYYCQQPYDASYTFGGGTKVEIK",binding,[5],binds
"MSLN-26 (antibody, V domains shown) VH: QVQLQESGPGLVKPSETLSLTCTVSGGSVSSRDDLWSWIRQPPGKGLEWIGYIYYSGSTNYNPSLKSRVTISVDTSKNQFSLKLSSVTAADTAVYYCAREDALTGFDIWGQGTMVTVSS VL: DIQMTQSPSSLSASVGDRVTITCRASQSISSYLNWYQQKPGKAPKLLIYAASSLQSGVPSRFSGSGSGTDFTLTISSLQPEDFATYYCQQPYDASYTFGGGTKVEIK",binding,[6],binds
"MSLN-27 (antibody, V domains shown) VH: QVQLQESGPGLVKPSETLSLTCTVSGGSVSSFTDTWSWIRQPPGKGLEWIGYIYYSGSTNYNPSLKSRVTISVDTSKNQFSLKLSSVTAADTAVYYCAREDALTGFDIWGQGTMVTVSS VL: DIQMTQSPSSLSASVGDRVTITCRASQSISSYLNWYQQKPGKAPKLLIYAASSLQSGVPSRFSGSGSGTDFTLTISSLQPEDFATYYCQQPYDASYTFGGGTKVEIK",binding,[7],binds
"MSLN-29 (antibody, V domains shown) VH: QVQLQESGPGLVKPSETLSLTCTVSGGSVSSYHDLWSWIRQPPGKGLEWIGYIYYSGSTNYNPSLKSRVTISVDTSKNQFSLKLSSVTAADTAVYYCARDFVLSGFDIWGQGTMVTVSS VL: DIQMTQSPSSLSASVGDRVTITCRASQSISSYLNWYQQKPGKAPKLLIYAASSLQSGVPSRFSGSGSGTDFTLTISSLQPEDFATYYCQQPYDASYTFGGGTKVEIK",binding,[8],binds
"MSLN-30 (antibody, V domains shown) VH: QVQLQESGPGLVKPSETLSLTCTVSGGSVSSRDDLWSWIRQPPGKGLEWIGYIYYSGSTNYNPSLKSRVTISVDTSKNQFSLKLSSVTAADTAVYYCARDFVLSGFDIWGQGTMVTVSS VL: DIQMTQSPSSLSASVGDRVTITCRASQSISSYLNWYQQKPGKAPKLLIYAASSLQSGVPSRFSGSGSGTDFTLTISSLQPEDFATYYCQQPYDASYTFGGGTKVEIK",binding,[9],binds
"MSLN-31 (antibody, V domains shown) VH: QVQLQESGPGLVKPSETLSLTCTVSGGSVSSFTDTWSWIRQPPGKGLEWIGYIYYSGSTNYNPSLKSRVTISVDTSKNQFSLKLSSVTAADTAVYYCARDFVLSGFDIWGQGTMV VL: DIQMTQSPSSLSASVGDRVTITCRASQSISSYLNWYQQKPGKAPKLLIYAASSLQSGVPSRFSGSGSGTDFTLTISSLQPEDFATYYCQQPYDASYTFGGGTKVEIK",binding,[10],binds
"MSLN-32 (antibody, V domains shown) VH: QVQLQESGPGLVKPSETLSLTCTVSGGSVSSYYSTWSWIRQPPGKGLEWIGYIYYSGSTNYNPSLKSRVTISVDTSKNQFSLKLSSVTAADTAVYYCARDFVLSGFDIWGQGTMVTVSS VL: DIQMTQSPSSLSASVGDRVTITCRASQSISSYLNWYQQKPGKAPKLLIYAASSLQSGVPSRFSGSGSGTDFTLTISSLQPEDFATYYCQQPYDASYTFGGGTKVEIK",binding,[11],binds
"MSLN-33 (antibody, V domains shown) VH: QVQLQESGPGLVKPSETLSLTCTVSGGSVSSYHDLWSWIRQPPGKGLEWIGYIYYSGSTNYNPSLKSRVTISVDTSKNQFSLKLSSVTAADTAVYYCARDNVFTGFDIWGQGTMVTVSS VL: DIQMTQSPSSLSASVGDRVTITCRASQSISSYLNWYQQKPGKAPKLLIYAASSLQSGVPSRFSGSGSGTDFTLTISSLQPEDFATYYCQQPYDASYTFGGGTKVEIK",binding,[12],binds
"MSLN-34 (antibody, V domains shown) VH: QVQLQESGPGLVKPSETLSLTCTVSGGSVSSRDDLWSWIRQPPGKGLEWIGYIYYSGSTNYNPSLKSRVTISVDTSKNQFSLKLSSVTAADTAVYYCARDNVFTGFDIWGQGTMVTVSS VL: DIQMTQSPSSLSASVGDRVTITCRASQSISSYLNWYQQKPGKAPKLLIYAASSLQSGVPSRFSGSGSGTDFTLTISSLQPEDFATYYCQQPYDASYTFGGGTKVEIK",binding,[13],binds
"MSLN-35 (antibody, V domains shown) VH: QVQLQESGPGLVKPSETLSLTCTVSGGSVSSFTDTWSWIRQPPGKGLEWIGYIYYSGSTNYNPSLKSRVTISVDTSKNQFSLKLSSVTAADTAVYYCARDNVFTGFDIWGQGTMVTVSS VL: DIQMTQSPSSLSASVGDRVTITCRASQSISSYLNWYQQKPGKAPKLLIYAASSLQSGVPSRFSGSGSGTDFTLTISSLQPEDFATYYCQQPYDASYTFGGGTKVEIK",binding,[14],binds
"MSLN-37 (antibody, V domains shown) VH: QVQLQESGPGLVKPSETLSLTCTVSGGSVSSYHDLWSWIRQPPGKGLEWIGYIYYSGSTNYNPSLKSRVTISVDTSKNQFSLKLSSVTAADTAVYYCAREDALTGFDIWGQGTMVTVSS VL: DIQMTQSPSSLSASVGDRVTITCRASQSSRYYVNWYQQKPGKAPKLLIYAASSLQSGVPSRFSGSGSGTDFTLTISSLQPEDFATYYCQQSYDASYTFGGGTKVEIK",binding,[15],binds
"MSLN-38 (antibody, V domains shown) VH: QVQLQESGPGLVKPSETLSLTCTVSGGSVSSRDDLWSWIRQPPGKGLEWIGYIYYSGSTNYNPSLKSRVTISVDTSKNQFSLKLSSVTAADTAVYYCAREDALTGFDIWGQGTMVTVSS VL: DIQMTQSPSSLSASVGDRVTITCRASQSSRYYVNWYQQKPGKAPKLLIYAASSLQSGVPSRFSGSGSGTDFTLTISSLQPEDFATYYCQQSYDASYTFGGGTKVEIK",binding,[16],binds
